Results as given in patent US10183011B2, “Anti-depression compounds” (Board of Regents of the University of Texas System, priority 2009, dated 2019).
For at least one compound, name, drawing or mass did not settle the structure.

System: hippocampal neurogenesis in the DG
Assay: Comparison of P7C3 compounds and antidepressant drugs: DG BrdU labeling after i.c.v. infusion
Type: in vivo, mouse
Details: 10 μM i.c.v. for 7 days
Description: The neuroprotective efficacies of both P7C3 and P7C3-A20 were next compared to currently marketed antidepressant medications, using screening conditions identical to those by which P7C3 was originally discovered. This experiment was based on the antidepressant actions of P7C3 and P7C3-A20 characterized here, and the dependence on hippocampal neurogenesis for behavioral efficacy of some marketed antidepressant medications in mice.
Proneurogenic efficacies in the DG of P7C3 and P7C3A20 were compared to those of vehicle (artificial cerebrospinal fluid) and several marketed antidepressant compounds (Sigma-Aldrich, St. Louis, Mo.) according to established methods. In brief, mice were housed individually in cages without running wheels or any form of environmental enrichment, in order to create an environment predicted to have as low of a baseline level of hippocampal neurogenesis as possible. Compounds (10 μM, i.c.v.) were administered for 7 days via subcutaneously implanted Alzet osmotic minipumps connected to a cannula directed into the left lateral ventricle, with implantation day designated as day 0. Starting on day 1, mice also received daily injections of BrdU (50 mg/kg, i.p.) at 9 am daily, for 6 days. Twenty four hours after the sixth BrdU injection, mice were transcardially perfused as described above.

SMILES: CN(C)CCCC1(c2ccc(F)cc2)OCc2cc(C#N)ccc21 (stereo not shown) [citalopram]
- increase of DG neurogenesis (BrdU labeling) over vehicle: did not affect the magnitude of neurogenesis
